Results published in article PMC11021452, “Exposing the molecular heterogeneity of glycosylated biotherapeutics” (Nature Communications, 2024).
Results are given in words; binding and its absence hold for the method and conditions named. Some binding calls cover weakened binding; strength is not graded here. Where a sequence is shown, tags or fusion partners need not be part of it.

Target: MHCII beta chain construct CLIP-linker-TEV-DPB1*05:01 extracellular domain-Jun zipper-SpyTag003-His6
Assay: native MS; DIA-PTCR with static nanospray on the co-expressed, co-purified complex; 10 µM, exchanged into 200 mM ammonium acetate; both purified

- binding: binds
B1: MHCII alpha chain construct DPA1*02:02 extracellular domain-Fos zipper-Avi-His6 (full-length alpha chain) (domain or fragment)
MHC II alpha: GAIKADHVSTYAMFVQTHRPTGEFMFEFDEDEQFYVDLDKKETVWHLEEFGRAFSFEAQGGLANIAILNNNLNTLIQRSNHTQAANDPPEVTVFPKEPVELGQPNTLICHIDRFFPPVLNVTWLCNGEPVTEGVAESLFLPRTDYSFHKFHYLTFVPSAEDVYDCRVEHWGLDQPLLKHWEAQEPIQMPETTESSADLVPRGSLTDTLQAETDQLEDEKSALQTEIANLLKEKEKLEFILAAGGSGGSGSGATNFSLLKQAGDVEENPG
modifications: glycosylated; a non-native glycosylation site on the P2A peptide
